Assay results taken from doi:10.1101/2023.01.12.523872.
Like-named read-outs stand apart in the source and are kept apart here. These are yes or no findings as the source states them, for the method shown. Binding seen in cells or lysates may run through a third protein. These calls come from enrichment with a bait or labelling near it, and not all partners need be listed. Sequences can lack the tags named with a protein.

T1: Scs2-GFP-TM (S. pombe) (UniProt O60119)
T1 sequence: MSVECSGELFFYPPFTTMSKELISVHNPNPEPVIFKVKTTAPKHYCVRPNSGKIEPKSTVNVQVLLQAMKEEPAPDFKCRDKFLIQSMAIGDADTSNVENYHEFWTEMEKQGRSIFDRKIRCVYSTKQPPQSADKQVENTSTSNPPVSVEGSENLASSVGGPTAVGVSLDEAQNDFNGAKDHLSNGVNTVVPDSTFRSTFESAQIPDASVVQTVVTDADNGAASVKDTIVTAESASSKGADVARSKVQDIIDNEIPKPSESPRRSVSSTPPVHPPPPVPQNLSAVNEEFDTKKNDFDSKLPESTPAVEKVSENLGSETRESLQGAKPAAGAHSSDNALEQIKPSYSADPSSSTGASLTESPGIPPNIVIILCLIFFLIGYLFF


Assays:
Scs2-GFP-TM (S. pombe) [1] = target: T1, Scs2-GFP-TM (S. pombe); experiment: affinity purification with mass spectrometry
Scs2-GFP-TM (S. pombe) [2] = target: T1, Scs2-GFP-TM (S. pombe); experiment: affinity purification with mass spectrometry; remark: listed apart in the source

| Molecule | binding (Scs2-GFP-TM (S. pombe) [1]) | binding (Scs2-GFP-TM (S. pombe) [2]) |
| --- | --- | --- |
| Pdr16 (endogenous) (S. pombe (endogenous in S. pombe cells)) | binds | – |
| Myo1 (endogenous) (protein, UniProt Q9Y7Z8 1-1217) MAILKRTNRAKAATAAAPNSTGKSNGIKKAVYTSTRKKTVGVDDLTLLSKITDEEINKNLELRFRNGEIYTYIGHVLISVNPFRDLGIYTMDILKSYQGKNRLETSPHVYAIAENAYYQMKSYHENQCIIISGESGAGKTEAAKRIMQYITHVSKSVGTEIERVSEIILATNPLLESFGCAKTLRNNNSSRHGKYLEMIFNSGGVPVGAKITNYLLEKNRIVNQVRNERNFHIFYQFTKSAPQKYRDTYGIQGPENYVYTSACQCLSVDGISDEKDFQGTMNAMKVIGITEPEQDEIFRMLSIILWLGNIQFQEGQDGGSVISDKSITEFLGYLIGVPVAAIERALTIRIMQTQHGARRGSVYEVPLNPTQALAVRDALSMAIYNCLFDWIVERVNKALVTSDNSVSNSIGILDIYGFEIFENNSFEQLCINYVNEKLQQIFIELTLKTEQEEYVREQIAWTPIKYFNNKVVCDLIESKRPPGLFAAMNDAIATAHADSAAADSAFAQRLNFLSSNPHFEQRQNQFIVKHYAGDVTYSITGMTDKNKDQLATDILNLIHSSNNEFMKSIFPVAEESNSRRRPPTAGDRIKTSANDLVETLMKCQPSYIRTIKPNQTKSPNDYDQQMVLHQIKYLGLQENIRIRRAGFAYRQAFDTFAQRFAVLSGKTSYAGEYTWQGDDKSACEQILKDTNIPSSEYQMGTSKVFIKNPETLFALEDMRDKFWDTMATRIQRAWRSYVRRRSEAAACIQKLWNRNKVNMELERVRNEGTKLLQGKKQRRRYSILGSRKFYGDYLSASKPNGTLWNTCGLSQNDHVIFSMRCEVLVHKLGRTSKPSPRQLVLTKKNLYLVITKIVDQKLTQQVEKKFAVSSIDSVGLTNLQDDWVAIRNKSSQNGDMFLRCFFKTEFITTLKRINRNIQVIVGPTIQYCRKPGKVQTVKTAKDETTKDYDYYKSGTIHVGTGLPPTSKSKPFPRLATGGSTAAARGPRPVVQNKPAATKPVSMPAAKSKPAPMANPVSTAQQTQNRPPAPAMQARPNTTQAAAPVTSTTTTIKQATTVSASKPAPSTVTSAASSPSNISKPSAPVANNVSKPSAVPPPPPPPPAEVEKKDLYLALYDFAGRSPNEMTIKKDEIIEIVQKEPSGWWLALKNGAEGWVPATYVTEYKGSTPQTTASSTNVAAQANNNASPAEVNNLAGSLADALRMRASAVRGSDEEEDW | – | binds |

Further lines, results first:

| binding (Scs2-GFP-TM (S. pombe) [1]) | binding (Scs2-GFP-TM (S. pombe) [2]) | Molecule |
| --- | --- | --- |
| binds | – | Csr102 (endogenous) (S. pombe (endogenous in S. pombe cells)) |
| – | binds | Pil1 (endogenous) (protein, UniProt O74960 1-351) MMNRAYSLRNSRAPTASQLLNPPPPSSSTRSGRLFAPLSHTMRINHAATFTPDLAKRLAVLVKMEKNVMRSMEVTIRGRRDCARQLSYWGEDCDDDISDVTDKLGVLFYEMAELENYLIDRYDQYRMTLKSIRNIESSVQPSREKKQKLLDQIYALKHKDPESPRLVTMEQELVREEAACLVAEAQLSNTTREKFKQAMTFNLDALHEHAEKLNLIATYGRHLLNLIDDTPVTPGEARPAYDGYETSRQIVMDAEHALSSWVPSQPAVNFVKPQIEDDAQSDARSWNEYEAQGEPVPVEQVTHLQDDVQSDTSEIIENEPGMHPHVHAERMSRIASESSDAVPQQTAVQVA |
